This assay addresses Dshi_1135-Strep fusion protein (Dinoroseobacter shibae) (UniProt A8LHT0). Put plainly: pull-down; Strep-Tactin co-affinity purification of Dshi_1135-Strep from D. shibae after 0.125% formaldehyde cross-linking; cells grown under white light, blue light or dark; elution fractions on 15% SDS-PAGE, western blot with a PpsR specific antiserum. (A western blot detects proteins with antibodies after separation by electrophoresis.)

Amino acid sequences for entries named in this document (tags omitted). A change or cut given only in a name is not applied to a line headed by its entry.
UniProt A8LHT0: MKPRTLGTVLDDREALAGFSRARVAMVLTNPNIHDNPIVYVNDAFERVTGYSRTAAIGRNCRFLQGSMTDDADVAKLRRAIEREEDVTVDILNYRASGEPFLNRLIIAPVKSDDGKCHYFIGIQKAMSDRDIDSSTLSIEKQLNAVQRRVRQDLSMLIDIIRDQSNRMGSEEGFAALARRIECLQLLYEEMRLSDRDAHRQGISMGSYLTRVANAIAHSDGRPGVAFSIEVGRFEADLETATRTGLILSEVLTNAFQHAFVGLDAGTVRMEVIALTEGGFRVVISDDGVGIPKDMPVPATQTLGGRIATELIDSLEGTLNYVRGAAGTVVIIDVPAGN

No constants are given. Whether binding was seen depends on the method and setting. In cells and extracts the contact can be indirect. Binding calls can cover weak binding; strength is not graded here.

B1: PpsR repressor (protein, UniProt A8LQ24 1-476)
chain: MNTRERDFWDDRSAPRIAPEHFNEIVATAADLAIVLDLKGTVQSLVVNPLNPTIGRLDHWQKRDIREFLAEDSLAKLEKQLSAYQQGEVPPTDAIEVNHFDNANWEFPIRYTLHRTGDENLILMLGRDLRPVAELQHRLVKAQLALEKDYESHRDYETRYRVVMESTRDPLVLVDASSGRITDMNSAAAQVLGAEADALVGSLFGHEFNGLKRGELLDQLMGAATSDTNSSVTAHTKRTAKELKIQARLFRASGDKTLLCRLEGAGAQEVIAEELSEVLTLLFREGADAVVFTDPTGMIRNVNEAFLNLTDVGQLGDIKGKSLSDFLARGSVDLKVMMDNASRHGSMPVYSTRLESAYGSQLSVEISATHLEARQNGGFAFVFRDASRLEVVRDAAPVNGAVSGEAMQNVMELVGSAPLKDIVSATTDVVEKMCIETAVGLTRNNRVAAAEMLGLSRQSLYVKLRKYGLLNKGGDE
On to B1, for which the binding result is given as “binds”.

(Values after paper PMC10890935.)
